No constants are given. Whether binding was seen depends on the method and setting. Some results given as binding are weak or reduced against the parent protein; the word gives no strength.
B1: rat 7E8 Fab (Fab, V domains shown)
VH: EVQLVETGGGLVQPGRSLKLSCKTSGFTFSSYWMYWIRQAPGKGLEWVSSITPNGGNTYYPDSVKGRFTISRDNAENTIYLQMSSLRSEDTATYFCAKGHYYYTSYSLGYWGQGSLVTVSS
VL: EIQMTQSPSVLSASVGDRVTLSCKASQNINKHLDWYQQKLGEAPKLLIYFTNNLQTGIPSRFSGSGSGTDCTLTINSLQPGDVATYFCFQYNNGWTFGGGTKLELD
B2: human ST2-hIgG2Fc (Fc fusion)
chain: KFSKQSWGLENEALIVRCPRQGKPSYTVDWYYSQTNKSIPTQERNRVFASGQLLKFLPAAVADSGIYTCIVRSPTFNRTGYANVTIYKKQSDCNVPDYLMYSTVSGSEKNSKIYCPTIDLYNWTAPLEWFKNCQALQGSRYRAHKSFLVIDNVMTEDAGDYTCKFIHNENGANYSVTATRSFTVKDEQGFSLFPVIGAPAQNEIKEVEIGKNANLTCSACFGKGTQFLAAVLWQLNGTKITDFGEPRIQQEEGQNQSFSNGLACLDMVLRIADVKEEDLLLQYDCLALNLHGLRRHTVRLSRKNPSKECFVECPPCPAPPVAGPSVFLFPPKPKDTLMISRTPEVTCVVVDVSHEDPEVQFNWYVDGMEVHNAKTKPREEQFNSTFRVVSVLTVVHQDWLNGKEYKCKVSNKGLPAPIEKTISKTKGQPREPQVYTLPPSREEMTKNQVSLTCLVKGFYPSDIAVEWESNGQPENNYKTTPPMLDSDGSFFLYSKLTVDKSRWQQGNVFSCSVMHEALHNHYTQKSLSLSPGK

Amino acid sequences for entries named in this document (tags omitted). A change or cut given only in a name is not applied to a line headed by its entry.
UniProt O95760: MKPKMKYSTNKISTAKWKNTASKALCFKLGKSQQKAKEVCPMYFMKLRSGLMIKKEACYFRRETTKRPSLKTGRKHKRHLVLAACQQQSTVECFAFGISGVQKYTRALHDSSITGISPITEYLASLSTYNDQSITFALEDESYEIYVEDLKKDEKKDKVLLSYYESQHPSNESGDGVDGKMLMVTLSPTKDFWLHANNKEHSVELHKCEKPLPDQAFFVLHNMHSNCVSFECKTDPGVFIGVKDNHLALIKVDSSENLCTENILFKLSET

Experiments:
[1] = molecular target: human IL-33 (mm2) (human) (UniProt O95760); experiment: SPR (Biacore), human IL-33 (mm2) immobilized on the chip, titration series of rat 7E8 Fab in solution; panel title 'hu IL33 Mu2'
[2] = molecular target: human IL-33 WT (R&D) (human) (UniProt O95760); experiment: Octet, captured on anti-Fc tip; IL-33 alone
[3] = molecular target: human IL-33 WT (R&D) (human) (UniProt O95760); experiment: Octet, captured on anti-Fc tip; IL-33 premixed with IL33-271 (competitor)

Binder	binding [1]	binding [2]	binding [3]
B1	binds		
B2		binds	binds
